For at least one entry, the source does not settle the construct or the ends of the probe. At least one result comes from cells or an extract, where the contact may be indirect.
Biological target: FGFR1 on NIH3T3 cells (mouse (NIH3T3 fibroblasts)) (UniProt P16092)
Experiment: flow cytometry
Details: increased binding fraction vs binder, flow cytometry: PBS, 1% BSA, 0.1% sodium azide, room temperature, protein on the cell surface, folded or branched DNA

Sequences of proteins named here, by UniProt entry; tags and fusion partners are left off. Residues count along the entry.
UniProt P16092, 22-822: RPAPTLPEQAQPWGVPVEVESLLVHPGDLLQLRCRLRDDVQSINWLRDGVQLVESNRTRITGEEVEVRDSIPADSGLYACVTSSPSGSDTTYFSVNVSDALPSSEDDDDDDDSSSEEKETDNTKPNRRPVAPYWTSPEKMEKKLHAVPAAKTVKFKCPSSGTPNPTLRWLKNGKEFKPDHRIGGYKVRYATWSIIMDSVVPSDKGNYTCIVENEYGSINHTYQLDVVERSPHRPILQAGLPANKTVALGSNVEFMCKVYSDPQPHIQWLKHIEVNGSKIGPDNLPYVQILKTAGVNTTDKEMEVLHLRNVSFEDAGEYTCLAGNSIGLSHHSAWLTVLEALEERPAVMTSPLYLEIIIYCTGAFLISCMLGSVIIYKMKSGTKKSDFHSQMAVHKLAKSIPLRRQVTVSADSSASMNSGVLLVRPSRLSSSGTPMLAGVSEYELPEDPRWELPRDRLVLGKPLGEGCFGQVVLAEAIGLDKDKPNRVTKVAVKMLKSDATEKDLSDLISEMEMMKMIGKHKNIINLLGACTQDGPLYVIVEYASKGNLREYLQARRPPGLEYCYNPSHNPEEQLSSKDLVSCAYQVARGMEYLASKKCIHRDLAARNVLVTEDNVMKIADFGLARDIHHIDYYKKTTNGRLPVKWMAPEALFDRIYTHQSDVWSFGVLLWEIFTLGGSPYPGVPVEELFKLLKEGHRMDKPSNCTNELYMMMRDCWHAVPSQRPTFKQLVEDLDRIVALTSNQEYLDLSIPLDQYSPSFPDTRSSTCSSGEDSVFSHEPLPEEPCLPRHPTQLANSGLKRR

GCCGCGTCTTTATGGCTGGGGATGGTGTGGGTTGCGGCGCCGCGTCTTTATGGCTGGGGATGGTGTGGGTTGCGGC [FAM-FGFR-agonist]
binding result: binds

From article PMC10638775
